For the test, the system named is primary human hepatic stellate cells (donor 1). Description: percent Bodipy-positive cells; higher = more lipid droplet accumulation. Particulars: 48 h.
The mark [1] stands for this setting: library stock concentration: 3.33 mM.
The mark [2] stands for this setting: library stock concentration: 10 mM.
Setting [3] is: library stock concentration: 1 mM.
[4] abbreviates: library stock concentration: 80 uM.
Where [5] appears, read: library stock concentration: 400 uM.
The mark [6] stands for this setting: library stock concentration: 2 mM.

Counter-ions that a name gives are not always drawn. ± gives the standard deviation of the averaged measurements. This is one part of the list. Baselines shift from plate to plate; read single values as rough.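 Assay uses culture-activated primary human stellate myofibroblasts; lipid droplet recovery indicates inactivation. Measured: proportion of Hoechst-counted cells over a plate-specific Bodipy cutoff, duplicate wells, DMSO and nortriptyline as per-plate negative and positive controls. A hit scores, control-normalized, above the plate's top-tenth-percentile nortriptyline wells or ranks among its three best wells. Final well concentrations not reported.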

In the case of `Cc1cc([N+](=O)[O-])ccc1NS(=O)(=O)c1cc(Cl)ccc1Cl`, the “percent Bodipy-positive cells” value under setting [1] came to 39.5 ± 13% and the “percent Bodipy-positive cells” value under setting [2] came to 52.1 ± 9.4%.

As for `COc1ccc(C(=O)NCc2cccnc2)cc1C(=O)NCc1cccnc1` [Picotamide monohydrate], the “percent Bodipy-positive cells” value stood at 29.3 ± 2.3%. Take `COc1ccc(C(=O)NCc2cccnc2)cc1C(=O)NCc1cccnc1` [Picotamide]: the “percent Bodipy-positive cells” value is 10 ± 1.4% (library stock concentration: 5.3 mM) and 15.8 ± 1.8% under setting [2]. As for `CC(C)c1cccc(C(C)C)c1N1C(=O)c2ccc(O)cc2C1=O`, the “percent Bodipy-positive cells” value under setting [2] stood at 61.6 ± 7.8%. For `COCc1c(C(C)C)nc(C(C)C)c(/C=C/[C@@H](O)C[C@@H](O)CC(=O)O)c1-c1ccc(F)cc1` [Cerivastatin], for the setting “library stock concentration: 4.4 mM”, the “percent Bodipy-positive cells” value is 36.5 ± 13%. Turning to `COCc1c(C(C)C)nc(C(C)C)c(/C=C/[C@@H](O)C[C@@H](O)CC(=O)O)c1-c1ccc(F)cc1`, the “percent Bodipy-positive cells” value under setting [2] was determined as 37.7 ± 2.2%. Consider `O=C(c1ccc(F)cc1)N1CCCC(c2nc(-c3ccc(F)cc3)no2)C1` (stereo not given), for which the “percent Bodipy-positive cells” value under setting [1] worked out at 8.25 ± 2.7% and the “percent Bodipy-positive cells” value under setting [2] came to 12.2 ± 0.67%. For the compound `CC(=O)O[C@]1(C(C)=O)CCC2C3C=C(Cl)C4=CC(=O)CC[C@]4(C)C3CC[C@@]21C` (stereo not given in full) [Chlormadinone acetate], the “percent Bodipy-positive cells” value under setting [2] was found to be 88.2 ± 3.6%. Take `O=C(CNC(=O)c1ccc(Cl)cc1)NO` [Benurestat]: the “percent Bodipy-positive cells” value (library stock concentration: 8.7 mM) turned out to be 16.5 ± 6.8%. With `CN1CCCC(n2nc(Cc3ccc(Cl)cc3)c3ccccc3c2=O)CC1` (stereo not given) [Azelastine HCl], the “percent Bodipy-positive cells” value under setting [1] is 60.4 ± 13%. In the case of `CN1CCCC(n2nc(Cc3ccc(Cl)cc3)c3ccccc3c2=O)CC1` (stereo not given), the “percent Bodipy-positive cells” value under setting [2] was determined as 83.6 ± 1.9%. On the same count and under the same terms, under `O=c1oc(-c2ccc(C(F)(F)F)cc2)nn1Cc1cc(Cl)ccc1O` stands 47.4 ± 14%. As to `CC1=CC(=O)NS(=O)(=O)O1` [Acesulfame Potassium], the “percent Bodipy-positive cells” value reads like this: under setting [1], 15.1 ± 3.1%; under setting [2], 17.9 ± 1.5%.

On to `CC1=CC(=O)NS(=O)(=O)O1`, for which the “percent Bodipy-positive cells” value under setting [2] came to 37 ± 0.46%. With `CCCC(=O)Nc1ncnc2c1ncn2[C@@H]1O[C@@H]2COP(=O)(O)O[C@H]2[C@H]1OC(=O)CCC` [Bucladesine sodium salt], the “percent Bodipy-positive cells” value stood at 10.1 ± 3.4%. `CCCC(=O)Nc1ncnc2c1ncn2[C@@H]1O[C@@H]2COP(=O)(O)O[C@H]2[C@H]1OC(=O)CCC` [Dibutyryl-cAMP, sodium salt]: the “percent Bodipy-positive cells” value under setting [2] is 8.09 ± 3.1%. On the same count and under the same terms, under `CCCC(=O)Nc1ncnc2c1ncn2[C@@H]1O[C@@H]2COP(=O)(O)O[C@H]2[C@H]1OC(=O)CCC` [Bucladesine] stands 25.4 ± 7.2%; under `CN(C)CCC[C@@]1(c2ccc(F)cc2)OCc2cc(C#N)ccc21`, 68.7 ± 12%.

Turning to `CN(C)CCC[C@@]1(c2ccc(F)cc2)OCc2cc(C#N)ccc21` [Escitalopram Oxalate], the “percent Bodipy-positive cells” value by setting is: under setting [1], 26.1 ± 4.8%; under setting [2], 79.3 ± 9.5%. On to `CN(C)CCC[C@@]1(c2ccc(F)cc2)OCc2cc(C#N)ccc21` [Escitalopram], for which the “percent Bodipy-positive cells” value (library stock concentration: 6.2 mM) came to 31.7 ± 8.6%. For the compound `CCCCC/C=C\C/C=C\C/C=C\C/C=C\CCCC(=O)OCC` [Arachidonic Acid ethyl ester], the “percent Bodipy-positive cells” value under setting [3] turned out to be 6.79 ± 1.8%. `CC(=O)N[C@@H](CCC(=O)O)C(=O)O` [Acetylglutamic acid]: the “percent Bodipy-positive cells” value under setting [2] was 20.8 ± 8%.

Regarding `O=S(=O)(c1ccccc1)c1cnc2c(N3CCNCC3)cccc2c1`, the “percent Bodipy-positive cells” value under setting [1] was 40 ± 10%. As for `COc1ccc(-n2c(C)c([N+](=O)[O-])c3ccc(O)cc32)cc1`, the “percent Bodipy-positive cells” value runs as follows: under setting [1], 54 ± 4.7%; under setting [2], 76.54 ± 0.58%. In the case of `CC(C)C[C@H](NC(=O)[C@H](CCc1ccccc1)NC(=O)CN1CCOCC1)C(=O)N[C@@H](Cc1ccccc1)C(=O)N[C@@H](CC(C)C)C(=O)[C@@]1(C)CO1` [Carfilzomib (PR-171)], the “percent Bodipy-positive cells” value under setting [1] stood at 76.6 ± 10% and the “percent Bodipy-positive cells” value under setting [2] is 92.7 ± 6.6%.

On to `Cc1c(C(=O)NC2CCCCC2)sc2nc3ccc(N)cc3n12`, for which the “percent Bodipy-positive cells” value under setting [2] stood at 14.8 ± 6.2%. Regarding `COc1ccc(C2(CNC(=O)c3ccc(NC(=O)c4ccco4)cc3)CCOCC2)cc1`, the “percent Bodipy-positive cells” value turned out to be 42.1 ± 6.3% under setting [4], 36.2 ± 1.6% under setting [5], 39.3 ± 0.88% under setting [6] and 48.2 ± 6% under setting [2]. For `O=C(O[C@H]1CN2CCC1CC2)N1CCc2ccccc2[C@@H]1c1ccccc1` [Solifenacin succinate], the “percent Bodipy-positive cells” value under setting [1] was determined as 37.2 ± 1.5%. For `O=C(O[C@H]1CN2CCC1CC2)N1CCc2ccccc2[C@@H]1c1ccccc1`, the “percent Bodipy-positive cells” value under setting [2] amounted to 57 ± 2.4%. As for `NC(=O)N/N=C/c1ccc([N+](=O)[O-])o1` [Nitrofural], the “percent Bodipy-positive cells” value worked out at 32.5 ± 3.4%. Further, the “percent Bodipy-positive cells” value under setting [1] came to 8.02 ± 3%. Moreover, under setting [2], the “percent Bodipy-positive cells” value amounted to 8.17 ± 1.5%.

Take `NC(=O)N/N=C/c1ccc([N+](=O)[O-])o1` [Nitrofurazone]: under setting [2], the “percent Bodipy-positive cells” value stood at 15.9 ± 7.9%. Same read-out and setting: the result for `CCN(CC)CC1CCN(c2ncc3ncnc(Nc4ccc(F)c(Cl)c4)c3n2)CC1.Cl.Cl` [BIBU 1361 dihydrochloride] reads 99 ± 1.4%.

As for `CCCCCCCCCCCCCCCCOC[C@H](COP(=O)([O-])OCC[N+](C)(C)C)OC` [2-O-methyl PAF C-16], the “percent Bodipy-positive cells” value under setting [3] was 14 ± 0.75%. Regarding `COc1ccc(S(=O)(=O)N2c3ccc(Cl)cc3[C@](O)(c3ccccc3Cl)[C@@H]2C(=O)N2CCC[C@H]2C(N)=O)cc1OC`, the “percent Bodipy-positive cells” value under setting [2] amounted to 9.48 ± 0.5%. For `COc1cc(OC)c(C=C2C(=O)Nc3ccccc32)c(OC)c1`, the “percent Bodipy-positive cells” value runs as follows: under setting [1], 16.2 ± 4%; under setting [2], 30.7 ± 7%.

With `CN1CCCCC1CCN1c2ccccc2Sc2ccc([S+](C)[O-])cc21` (stereo not given) [Mesoridazine besylate], the “percent Bodipy-positive cells” value was found to be 60.95 ± 0.14%. The “percent Bodipy-positive cells” value (library stock concentration: 5.2 mM) came to 41.4 ± 5.5%. `CN1CCCCC1CCN1c2ccccc2Sc2ccc([S+](C)[O-])cc21` (stereo not given) [Mesoridazine]: the “percent Bodipy-positive cells” value under setting [2] is 54.5 ± 19%. Consider `CC(=O)OCOC(=O)CN(CC(=O)OCOC(C)=O)c1ccccc1OCCOc1ccccc1N(CC(=O)OCOC(C)=O)CC(=O)OCOC(C)=O`, for which the “percent Bodipy-positive cells” value reads like this: under setting [1], 56.5 ± 6.6%; under setting [2], 97 ± 4.2%. With `O=Nc1c(-c2c(O)[nH]c3cc(Br)ccc23)[nH]c2ccccc12`, the “percent Bodipy-positive cells” value runs as follows: under setting [4], 10.3 ± 2.3%; under setting [5], 19.1 ± 2.5%; under setting [6], 16.7 ± 5.3%; under setting [1], 31.4 ± 9.9%. As for `O=Nc1c(-c2c(O)[nH]c3cc(Br)ccc23)[nH]c2ccccc12` [GSK-3 Inhibitor IX], the “percent Bodipy-positive cells” value under setting [1] is 19 ± 1.2%. Regarding `CO[C@@H]1[C@@H](OC(N)=O)[C@@H](O)[C@H](Oc2ccc3c(O)c(NC(=O)c4ccc(O)c(CC=C(C)C)c4)c(=O)oc3c2C)OC1(C)C` [Novobiocin Sodium], the “percent Bodipy-positive cells” value reads like this: under setting [1], 10.5 ± 1.6%; under setting [2], 14.1 ± 0.25%. Turning to `CO[C@@H]1[C@@H](OC(N)=O)[C@@H](O)[C@H](Oc2ccc3c(O)c(NC(=O)c4ccc(O)c(CC=C(C)C)c4)c(=O)oc3c2C)OC1(C)C` [Novobiocin sodium salt], the “percent Bodipy-positive cells” value worked out at 8.19 ± 1.2%. Consider `CO[C@@H]1[C@@H](OC(N)=O)[C@@H](O)[C@H](Oc2ccc3c(O)c(NC(=O)c4ccc(O)c(CC=C(C)C)c4)c(=O)oc3c2C)OC1(C)C` [Novobiocin sodium], for which the “percent Bodipy-positive cells” value under setting [2] was 21 ± 7.4%. On the same count and under the same terms, the result for `CN(C)C/C=C/C(=O)Nc1ccc(C(=O)Nc2cccc(Nc3nccc(-c4cccnc4)n3)c2)cc1` reads 99.51 ± 0.24%; that for `CCCCC(CC)CN1CCC(n2cc(CNC)nn2)CC1` (stereo not given), 94.33 ± 0.44%. For `Brc1c(Br)c(Br)c2n[nH]nc2c1Br` [Casein Kinase II Inhibitor I], under setting [1], the “percent Bodipy-positive cells” value is 19 ± 8.8%.

These data come from the supplement of paper PMC9135407.
